These are yes or no findings as the source states them, for the method shown. Some results given as binding are weak or reduced against the parent protein; the word gives no strength. One block for each binder: values may come before it.
Key:
Test in all cases: two-hybrid; GAL4(DB) fusion and GAL4(AD) fusion cotransformed into the wild-type tester strain GGY1::171; X-Gal colony colour on SSX plates, 30°C; pairs said to be unaffected were also tested in upf1Δ, pat1Δ, scd6Δ, edc3Δ or dcp2-N245 derivatives
[1] = target: T1, Dcp2, wild-type full length (S. cerevisiae), P53550; conditions: remark: other sources report otherwise
T1 chain: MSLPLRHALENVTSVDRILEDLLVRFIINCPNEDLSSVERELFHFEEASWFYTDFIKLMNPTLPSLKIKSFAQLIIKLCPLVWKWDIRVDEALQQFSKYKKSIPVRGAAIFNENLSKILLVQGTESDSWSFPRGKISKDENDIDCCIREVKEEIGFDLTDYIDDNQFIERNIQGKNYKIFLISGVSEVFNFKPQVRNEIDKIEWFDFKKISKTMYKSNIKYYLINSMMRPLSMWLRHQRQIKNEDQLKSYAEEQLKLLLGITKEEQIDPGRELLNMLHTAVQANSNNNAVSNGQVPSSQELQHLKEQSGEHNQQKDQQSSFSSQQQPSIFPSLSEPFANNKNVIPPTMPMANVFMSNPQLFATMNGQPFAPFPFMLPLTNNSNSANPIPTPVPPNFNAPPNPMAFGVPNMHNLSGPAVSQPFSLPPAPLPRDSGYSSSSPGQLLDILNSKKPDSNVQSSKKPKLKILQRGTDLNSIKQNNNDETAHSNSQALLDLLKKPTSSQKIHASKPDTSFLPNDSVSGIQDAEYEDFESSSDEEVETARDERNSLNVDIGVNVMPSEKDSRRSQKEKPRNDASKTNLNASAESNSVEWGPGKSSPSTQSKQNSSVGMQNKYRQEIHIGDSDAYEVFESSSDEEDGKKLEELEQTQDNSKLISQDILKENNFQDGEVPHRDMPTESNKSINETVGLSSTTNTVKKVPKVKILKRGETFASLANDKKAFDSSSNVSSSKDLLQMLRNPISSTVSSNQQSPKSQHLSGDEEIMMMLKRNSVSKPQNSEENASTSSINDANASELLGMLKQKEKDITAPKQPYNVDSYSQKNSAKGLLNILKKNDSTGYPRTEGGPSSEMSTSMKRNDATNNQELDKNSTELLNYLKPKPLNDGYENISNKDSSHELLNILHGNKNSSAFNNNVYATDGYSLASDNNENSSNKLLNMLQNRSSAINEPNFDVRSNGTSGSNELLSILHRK

[2] = target: T2, Dhh1 (S. cerevisiae), P39517; conditions: remark: other sources report otherwise
T2 chain: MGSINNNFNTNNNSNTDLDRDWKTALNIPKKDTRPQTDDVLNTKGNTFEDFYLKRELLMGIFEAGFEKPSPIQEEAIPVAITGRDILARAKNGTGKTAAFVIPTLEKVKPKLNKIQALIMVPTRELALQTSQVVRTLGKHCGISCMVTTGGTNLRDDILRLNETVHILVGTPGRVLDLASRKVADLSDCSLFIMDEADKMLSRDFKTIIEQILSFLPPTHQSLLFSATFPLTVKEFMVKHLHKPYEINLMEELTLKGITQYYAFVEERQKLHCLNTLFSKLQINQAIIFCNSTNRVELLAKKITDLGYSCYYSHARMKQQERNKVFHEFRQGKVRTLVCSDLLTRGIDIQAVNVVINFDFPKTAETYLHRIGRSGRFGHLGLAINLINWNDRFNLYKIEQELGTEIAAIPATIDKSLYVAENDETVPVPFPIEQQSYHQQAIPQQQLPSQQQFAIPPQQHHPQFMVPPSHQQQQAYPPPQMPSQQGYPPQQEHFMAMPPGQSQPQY

[3] = target: T3, Dcp2, wild-type full length (S. cerevisiae) (UniProt P53550)
T3 sequence: T1 chain

B1: Pat1, P25644 1-796 (protein)
chain: MSFFGLENSGNARDGPLDFEESYKGYGEHELEENDYLNDETFGDNVQVGTDFDFGNPHSSGSSGNAIGGNGVGATARSYVAATAEGISGPRTDGTAAAGPLDLKPMESLWSTAPPPAMAPSPQSTMAPAPAPQQMAPLQPILSMQDLERQQRQMQQQFMNFHAMGHPQGLPQGPPQQQFPMQPASGQPGPSQFAPPPPPPGVNVNMNQMPMGPVQVPVQASPSPIGMSNTPSPGPVVGATKMPLQSGRRSKRDLSPEEQRRLQIRHAKVEKILKYSGLMTPRDKDFITRYQLSQIVTEDPYNEDFYFQVYKIIQRGGITSESNKGLIARAYLEHSGHRLGGRYKRTDIALQRMQSQVEKAVTVAKERPSKLKDQQAAAGNSSQDNKQANTVLGKISSTLNSKNPRRQLQIPRQQPSDPDALKDVTDSLTNVDLASSGSSSTGSSAAAVASKQRRRSSYAFNNGNGATNLNKSGGKKFILELIETVYEEILDLEANLRNGQQTDSTAMWEALHIDDSSYDVNPFISMLSFDKGIKIMPRIFNFLDKQQKLKILQKIFNELSHLQIIILSSYKTTPKPTLTQLKKVDLFQMIILKIIVSFLSNNSNFIEIMGLLLQLIRNNNVSFLTTSKIGLNLITILISRAALIKQDSSRSNILSSPEISTWNEIYDKLFTSLESKIQLIFPPREYNDHIMRLQNDKFMDEAYIWQFLASLALSGKLNHQRIIIDEVRDEIFATINEAETLQKKEKELSVLPQRSQELDTELKSIIYNKEKLYQDLNLFLNVMGLVYRDGEISELK
binding [1]: binds

B4: Edc3 (protein, UniProt P39998 1-551)
chain: MSQFVGFGVQVELKDGKLIQGKIAKATSKGLTLNDVQFGDGGKSQAFKVRASRLKDLKVLTVASQSGKRKQQRQQQQQNDYNQNRGEHIDWQDDDVSKIKQQEDFDFQRNLGMFNKKDVFAQLKQNDDILPENRLQGHNRKQTQLQQNNYQNDELVIPDAKKDSWNKISSRNEQSTHQSQPQQDAQDDLVLEDDEHEYDVDDIDDPKYLPITQSLNITHLIHSATNSPSINDKTKGTVINDKDQVLAKLGQMIISQSRSNSTSLPAANKQTTIRSKNTKQNIPMATPVQLLEMESITSEFFSINSAGLLENFAVNASFFLKQKLGGRARLRLQNSNPEPLVVILASDSNRSGAKALALGRHLCQTGHIRVITLFTCSQNELQDSMVKKQTDIYKKCGGKIVNSVSSLESAMETLNSPVEIVIDAMQGYDCTLSDLAGTSEVIESRIKSMISWCNKQRGSTKVWSLDIPNGFDAGSGMPDIFFSDRIEATGIICSGWPLIAINNLIANLPSLEDAVLIDIGIPQGAYSQRTSLRKFQNCDLFVTDGSLLLDL
binding [3]: binds

Further lines, results first:

binding [1]: binds
B2: Upf1, P30771 1-971 (protein)
chain: MVGSGSHTPYDISNSPSDVNVQPATQLNSTLVEDDDVDNQLFEEAQVTETGFRSPSASDNSCAYCGIDSAKCVIKCNSCKKWFCNTKNGTSSSHIVNHLVLSHHNVVSLHPDSDLGDTVLECYNCGRKNVFLLGFVSAKSEAVVVLLCRIPCAQTKNANWDTDQWQPLIEDRQLLSWVAEQPTEEEKLKARLITPSQISKLEAKWRSNKDATINDIDAPEEQEAIPPLLLRYQDAYEYQRSYGPLIKLEADYDKQLKESQALEHISVSWSLALNNRHLASFTLSTFESNELKVAIGDEMILWYSGMQHPDWEGRGYIVRLPNSFQDTFTLELKPSKTPPPTHLTTGFTAEFIWKGTSYDRMQDALKKFAIDKKSISGYLYYKILGHQVVDISFDVPLPKEFSIPNFAQLNSSQSNAVSHVLQRPLSLIQGPPGTGKTVTSATIVYHLSKIHKDRILVCAPSNVAVDHLAAKLRDLGLKVVRLTAKSREDVESSVSNLALHNLVGRGAKGELKNLLKLKDEVGELSASDTKRFVKLVRKTEAEILNKADVVCCTCVGAGDKRLDTKFRTVLIDESTQASEPECLIPIVKGAKQVILVGDHQQLGPVILERKAADAGLKQSLFERLISLGHVPIRLEVQYRMNPYLSEFPSNMFYEGSLQNGVTIEQRTVPNSKFPWPIRGIPMMFWANYGREEISANGTSFLNRIEAMNCERIITKLFRDGVKPEQIGVITPYEGQRAYILQYMQMNGSLDKDLYIKVEVASVDAFQGREKDYIILSCVRANEQQAIGFLRDPRRLNVGLTRAKYGLVILGNPRSLARNTLWNHLLIHFREKGCLVEGTLDNLQLCTVQLVRPQPRKTERPMNAQFNVESEMGDFPKFQDFDAQSMVSFSGQIGDFGNAFVDNTELSSYINNEYWNFENFKSAFSQKQNRNEIDDRNLYQEEASHLNSNFARELQREEQKHELSKDFSNLGI

binding [2]: no binding
B3: Scd6, P45978 1-349 (protein)
chain: MSQYIGKTISLISVTDNRYVGLLEDIDSEKGTVTLKEVRCFGTEGRKNWGPEEIYPNPTVYNSVKFNGSEVKDLSILDANINDIQPVVPQMMPPASQFPPQQAQSPPQAQAQAHVQTNPQVPKPESNVPAAVAGYGVYTPTSTETATASMNDKSTPQDTNVNSQSRERGKNGENEPKYQRNKNRSSNRPPQSNRNFKVDIPNEDFDFQSNNAKFTKGDSTDVEKEKELESAVHKQDESDEQFYNKKSSFFDTISTSTETNTNMRWQEEKMLNVDTFGQASARPRFHSRGLGRGRGNYRGNRGNRGRGGQRGNYQNRNNYQNDSGAYQNQNDSYSRPANQFSQPPSNVEF

Source: publication PMC9170289
